The record followed here is paper PMC12211564.

What all share (assay): pull-down; His-tagged MFN2 constructs and GST-tagged RFFL (or GST) co-expressed in ArcticExpress E. coli; extract incubated with glutathione Sepharose beads 4 h at 4 C; washed three times with buffer B (50 mM NaH2PO4 pH 8.0, 500 mM NaCl, 5 mM MgCl2, 5% glycerol); immunoblot
In general terms: In western blotting, separated proteins are transferred to a membrane and probed.

Test [1] addresses T1, GST-RFFL (full-length RFFL with a GST tag) (human) (UniProt Q8WZ73).
T1 sequence: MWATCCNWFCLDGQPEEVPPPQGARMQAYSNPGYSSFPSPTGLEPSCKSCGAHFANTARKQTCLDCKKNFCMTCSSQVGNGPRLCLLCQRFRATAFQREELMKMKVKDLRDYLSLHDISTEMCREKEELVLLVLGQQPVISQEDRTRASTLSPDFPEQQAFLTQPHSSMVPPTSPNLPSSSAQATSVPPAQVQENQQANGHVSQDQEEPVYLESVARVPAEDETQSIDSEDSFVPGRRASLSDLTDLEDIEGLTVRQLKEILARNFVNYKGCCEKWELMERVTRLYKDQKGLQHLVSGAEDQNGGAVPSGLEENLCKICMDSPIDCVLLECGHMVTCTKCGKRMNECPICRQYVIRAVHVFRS

In a further test the target is T2, GST-RFFL H333A (human) (UniProt Q8WZ73).
T2 sequence: T1 sequence with H333A

The next test addresses T3, GST-RFFL C5, 6A (human) (UniProt Q8WZ73).
T3 sequence: T1 sequence with C5A, C6A

Positions count from the first letter of the chain named. No constants are given. Whether binding was seen depends on the method and setting. In cells and extracts the contact can be indirect. Some binding calls cover weakened binding; strength is not graded here. Tags and fused reporters may be left off the sequences shown.

B1: His-MFN2 (1-357) (domain or fragment, UniProt O95140-1 1-357)
chain: MSLLFSRCNSIVTVKKNKRHMAEVNASPLKHFVTAKKKINGIFEQLGAYIQESATFLEDTYRNAELDPVTTEEQVLDVKGYLSKVRGISEVLARRHMKVAFFGRTSNGKSTVINAMLWDKVLPSGIGHTTNCFLRVEGTDGHEAFLLTEGSEEKRSAKTVNQLAHALHQDKQLHAGSLVSVMWPNSKCPLLKDDLVLMDSPGIDVTTELDSWIDKFCLDADVFVLVANSESTLMQTEKHFFHKVSERLSRPNIFILNNRWDASASEPEYMEEVRRQHMERCTSFLVDELGVVDRSQAGDRIFFVSAKEVLNARIQKAQGMPEGGGALAEGFQVRMFEFQNFERRFEECISQSAVKTK
For B1, the binding entry in test [1] was “binds”.

B2: His-Sumo-MFN2 (1-357) (domain or fragment, UniProt O95140-1 1-357)
chain: B1 chain
B2: the binding entry with GST-RFFL H333A (human) was “binds”; with GST-RFFL C5, 6A (human) it was “binds”; in test [1], “binds”.

B3: His-MFN2 (full-length) (protein, UniProt O95140-1 1-757)
chain: MSLLFSRCNSIVTVKKNKRHMAEVNASPLKHFVTAKKKINGIFEQLGAYIQESATFLEDTYRNAELDPVTTEEQVLDVKGYLSKVRGISEVLARRHMKVAFFGRTSNGKSTVINAMLWDKVLPSGIGHTTNCFLRVEGTDGHEAFLLTEGSEEKRSAKTVNQLAHALHQDKQLHAGSLVSVMWPNSKCPLLKDDLVLMDSPGIDVTTELDSWIDKFCLDADVFVLVANSESTLMQTEKHFFHKVSERLSRPNIFILNNRWDASASEPEYMEEVRRQHMERCTSFLVDELGVVDRSQAGDRIFFVSAKEVLNARIQKAQGMPEGGGALAEGFQVRMFEFQNFERRFEECISQSAVKTKFEQHTVRAKQIAEAVRLIMDSLHMAAREQQVYCEEMREERQDRLKFIDKQLELLAQDYKLRIKQITEEVERQVSTAMAEEIRRLSVLVDDYQMDFHPSPVVLKVYKNELHRHIEEGLGRNMSDRCSTAITNSLQTMQQDMIDGLKPLLPVSVRSQIDMLVPRQCFSLNYDLNCDKLCADFQEDIEFHFSLGWTMLVNRFLGPKNSRRALMGYNDQVQRPIPLTPANPSMPPLPQGSLTQEEFMVSMVTGLASLTSRTSMGILVVGGVVWKAVGWRLIALSFGLYGLLYVYERLTWTTKAKERAFKRQFVEHASEKLQLVISYTGSNCSHQVQQELSGTFAHLCQQVDVTRENLEQEIAAMNKKIEVLDSLQSKAKLLRNKAGWLDSELNMFTHQYLQPSR
On to B3, for which, in test [1], the binding entry is “binds”.
